Measurements: PubChem BioAssay AID588497 (NMMLSC, 2011)
Out of some 360,000 compounds screened, about 780 (0.22%) were called active. Inconclusive means that the source gave no clear call. Such entries were picked first, then a sample of the others. Rule as the data show it: active = inhibition above about 35% (passing the limit was not always enough); inconclusive = no clear call, values can overlap the other calls.

Tested on: Botulinum neurotoxin type F light chain protease (Clostridium botulinum)
Assay: BoNT/F light chain protease inhibitors, primary screen, biochemical, flow cytometry, MLPCN library (AID 588497); also: plate controls were buffer without enzyme for full effect and enzyme alone for no effect
Details: Multiplex microsphere protease cleavage assay, at 10 µM, active compounds read high

Row | SMILES | inhibition
1 | C=CCn1c(O)c(/C(C)=N/N2CCCCCC2)c(=O)[nH]c1=O | inconclusive: -82.3%
2 | Cc1cccc(C)c1OCCN1CCOCC1 | inconclusive: -18%
3 | O=C(CSCc1ccc(Cl)cc1)N1CCN(Cc2ccc3c(c2)OCO3)CC1 | inconclusive: -21.3%
4 | Cc1ccc(NC(=O)CCC(=O)OCC(=O)c2ccc(Oc3ccc([N+](=O)[O-])cc3)cc2)cc1 | inactive: -2.4%
5 | CCOC(=O)C1CCCN(Cc2cccc(Oc3ccccc3)c2)C1 (stereo not given) | inconclusive: -12.9%
6 | CCSc1nc(C)c(C)c(=O)[nH]1 | inconclusive: 13%
7 | O=C(O)C1CCC1C(=O)Nc1nc(-c2ccc(Cl)s2)cs1 (stereo not given) | inconclusive: -13.8%
8 | Cc1cc([N+](=O)[O-])cc2c1NC(=O)C2(O)N1CCCC(C)C1 (stereo not given) | inconclusive: 2.3%
9 | CCC(=O)Nc1ccc(N/C(N)=N/c2nc(C)cc(C)n2)cc1 | inconclusive: -31.8%
10 | CCN(CC)C(=O)CSc1nc2c(sc(=S)n2-c2ccccc2)c(=O)n1-c1ccccc1OC | inconclusive: -10.6%
11 | Cc1cc(C)c(S(=O)(=O)N2CCN(C(=O)c3ccc(-n4cncn4)c([N+](=O)[O-])c3)CC2)c(C)c1 | inconclusive: -0.6%
12 | COc1ccc(CNc2oc(-c3cccc4ccccc34)nc2C#N)cc1 | inactive: -2.7%
13 | O=C(CCCn1c(=O)[nH]c2cc(Cl)ccc2c1=O)NCCN1CCN(c2ccccc2)CC1 | inconclusive: -32.6%
14 | CC(C(=O)Nc1ccc(O)cc1C(=O)O)N1C(=O)/C(=C\c2cccs2)SC1=S (stereo not given) | inconclusive: -7.2%
15 | CCOC(=O)CSC1=C(C#N)C(c2ccccc2Cl)C(C(=O)OC)C(=O)N1 (stereo not given) | inactive: 10%
16 | Cc1nc(N)nc(COc2ccccc2)n1 | inconclusive: 45.8%
17 | COc1cc2c(C)nc3onc(-c4ccccc4)c3c2cc1OC | inconclusive: 24.2%
18 | O=C(O)CCn1c(SCCOc2ccccc2F)nc2ccccc21 | inconclusive: -1.1%
19 | COCCOCC(O)CN1CCN(c2ccc(C)cc2)CC1 (stereo not given) | inconclusive: -35.5%
20 | Cc1c(C(C)NC(=O)Nc2ccc(F)cc2F)cnn1C (stereo not given) | inconclusive: -34.8%
21 | CCCCOc1ccc(-c2n[nH]c(=S)n2Cc2ccccc2)cc1 | active: 34.5%
22 | CC(NC(=O)c1cccc(F)c1)C(c1cccs1)N1CCN(C)CC1 (stereo not given) | inactive: -4.9%
23 | CCN1CCc2c(sc(NC(=O)c3ccc(S(=O)(=O)N4CCCC4)cc3)c2C(=O)NC)C1 | inconclusive: 18.2%
24 | CCOC(=O)c1cn(Cc2ccccc2)nc1-c1ccccc1 | inactive: -2.4%
25 | CN(C)c1ccc(C=C(C#N)C(=O)c2ccccc2)cc1Br | inactive: -1.6%

Sorted by SMILES length (smallest number first): some entries from above
Row | SMILES | inhibition
19 | COCCOCC(O)CN1CCN(c2ccc(C)cc2)CC1 (stereo not given) | inconclusive: -35.5%
21 | CCCCOc1ccc(-c2n[nH]c(=S)n2Cc2ccccc2)cc1 | active: 34.5%
12 | COc1ccc(CNc2oc(-c3cccc4ccccc34)nc2C#N)cc1 | inactive: -2.7%
1 | C=CCn1c(O)c(/C(C)=N/N2CCCCCC2)c(=O)[nH]c1=O | inconclusive: -82.3%
3 | O=C(CSCc1ccc(Cl)cc1)N1CCN(Cc2ccc3c(c2)OCO3)CC1 | inconclusive: -21.3%
14 | CC(C(=O)Nc1ccc(O)cc1C(=O)O)N1C(=O)/C(=C\c2cccs2)SC1=S (stereo not given) | inconclusive: -7.2%
11 | Cc1cc(C)c(S(=O)(=O)N2CCN(C(=O)c3ccc(-n4cncn4)c([N+](=O)[O-])c3)CC2)c(C)c1 | inconclusive: -0.6%
